Consider one molecule from publication PMC7660923.

No constants are given. Whether binding was seen depends on the method and setting. Binding seen in cells or lysates may run through a third protein.

The target of experiment [1] is mPR-GFP ΔN (1-70), mPRβ lacking the cytosolic N-terminal domain (Xenopus laevis). The experiment in a line: co-IP; GFP-tagged bait from lysates of about 70 mRNA-injected X. laevis oocytes (30 mM HEPES, 100 mM NaCl, pH 7.5, protease and phosphatase inhibitors; solubilised with 4% NP40 for 1 hour) captured on anti-GFP microbeads; western blot for APPL1, total Akt and GFP; oocytes untreated or treated with P4 (10^-5 M) over a time course. In general terms: Immunoblotting shows a protein as a band on a membrane.

Experiment [2] has as its target mPR-GFP ΔC, mPRβ lacking the last 12 residues (Xenopus laevis). Described as above.

B1: endogenous APPL1 (Adapter protein containing Pleckstrin homology domain, Phosphotyrosine binding domain and Leucine zipper motif 1) of Xenopus oocytes (protein, UniProt A0A8J0PTU5 1-708)
chain: MLGTDKLPIEETLEDSPQTRSLLGVFEEDAAAISSYSNQLFHAMRRIYDAQNELSAATHLTSKLLKEYEKQRFPLGGDDEVMTSTLQQFSKVIDELSSCHAVLSTQLADAMMFPIGQFKERDLKEILTLKEVFQISSNDHDVAINRYSRLSKRRENEKTKFEATEDVYTARKKQHQTMMHYFCALNTIQYKKKTAILEPLLGYMQAQINFFKMGSENLNSQLEEFLSNIGSSVQSVRREMDNEVENMQQTIQDMEAASEPLYLPDPDPKKLPVNRNLTRKAGYLNIRNKTGLVSSSWDRHYFFTQGGNLMSQARGDVAGGLVMDIDNCTVMAVDSEDRRYCFQITSFDGKKAVILQAESKKDCEEWISTINNISKRIYLTDNPEETAARVNQSALEAVTPSPSFQQRHESMRPAVPSRPHARRTSSTGSVGSDSSALTALSLDSIVAPDTPIQFDIISPVSEDQSGQPRTPGQTGRRTNPFGESGEKSESEDSILHQLFIVRFLGSMEVKSDENTEVVYETMRQILAARAIHNIFRMTESHLLVTCDCLKLIDPQTQVTRLRFPLAHIVLYATHQENKRLFGFVLRTAGGRAEGRPVSVCYIFESNNEGEKICDSVGLAKQIALHAELDRRASDKQKEIEKVKEKQQKEISKQKQIEKDLEEQSRLIAASSRPNQPNAEGQFVVLSSSQSEESDVGEEGKKKQRESEA
Consider B1, for which the binding entry in experiment [1] and in experiment [2] was “no binding” each time.
